Among the data in the supplement of paper PMC12819154, “High-throughput peptide-centric local stability assay extends protein–ligand identification to membrane proteins, tissues and bacteria” (Nature Structural & Molecular Biology, 2025) are log2 fold change values, retold here.

Protein sequences, listed by entry. Tags and fused reporters are not part of them. Lines headed by an entry give the natural chain unless they say otherwise; changes in a name come on top.
UniProt Q86WQ0: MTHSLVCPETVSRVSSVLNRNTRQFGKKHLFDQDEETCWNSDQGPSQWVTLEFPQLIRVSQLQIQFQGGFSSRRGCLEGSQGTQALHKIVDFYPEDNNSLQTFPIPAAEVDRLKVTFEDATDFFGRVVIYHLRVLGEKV
UniProt Q86Y37: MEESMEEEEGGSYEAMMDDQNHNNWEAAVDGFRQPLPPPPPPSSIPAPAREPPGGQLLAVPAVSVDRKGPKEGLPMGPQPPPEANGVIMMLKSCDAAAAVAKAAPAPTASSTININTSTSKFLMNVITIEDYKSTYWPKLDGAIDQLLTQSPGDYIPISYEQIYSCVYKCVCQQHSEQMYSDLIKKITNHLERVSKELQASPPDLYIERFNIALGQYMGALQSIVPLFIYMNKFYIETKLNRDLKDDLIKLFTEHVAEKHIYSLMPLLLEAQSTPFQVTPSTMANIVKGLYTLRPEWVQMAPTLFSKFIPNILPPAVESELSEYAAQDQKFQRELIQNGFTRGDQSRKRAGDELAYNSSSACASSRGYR
UniProt Q86YG4: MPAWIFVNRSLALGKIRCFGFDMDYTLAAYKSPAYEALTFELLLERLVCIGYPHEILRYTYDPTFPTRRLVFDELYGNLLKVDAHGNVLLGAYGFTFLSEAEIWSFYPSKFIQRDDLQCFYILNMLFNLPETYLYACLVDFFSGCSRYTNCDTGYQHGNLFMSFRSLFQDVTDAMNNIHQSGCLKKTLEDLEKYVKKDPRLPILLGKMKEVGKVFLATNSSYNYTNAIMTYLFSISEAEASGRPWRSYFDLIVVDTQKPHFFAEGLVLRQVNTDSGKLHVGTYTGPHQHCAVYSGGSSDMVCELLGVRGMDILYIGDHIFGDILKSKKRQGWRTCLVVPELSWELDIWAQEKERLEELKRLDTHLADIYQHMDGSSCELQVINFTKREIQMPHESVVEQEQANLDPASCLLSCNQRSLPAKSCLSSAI
UniProt Q8IY47: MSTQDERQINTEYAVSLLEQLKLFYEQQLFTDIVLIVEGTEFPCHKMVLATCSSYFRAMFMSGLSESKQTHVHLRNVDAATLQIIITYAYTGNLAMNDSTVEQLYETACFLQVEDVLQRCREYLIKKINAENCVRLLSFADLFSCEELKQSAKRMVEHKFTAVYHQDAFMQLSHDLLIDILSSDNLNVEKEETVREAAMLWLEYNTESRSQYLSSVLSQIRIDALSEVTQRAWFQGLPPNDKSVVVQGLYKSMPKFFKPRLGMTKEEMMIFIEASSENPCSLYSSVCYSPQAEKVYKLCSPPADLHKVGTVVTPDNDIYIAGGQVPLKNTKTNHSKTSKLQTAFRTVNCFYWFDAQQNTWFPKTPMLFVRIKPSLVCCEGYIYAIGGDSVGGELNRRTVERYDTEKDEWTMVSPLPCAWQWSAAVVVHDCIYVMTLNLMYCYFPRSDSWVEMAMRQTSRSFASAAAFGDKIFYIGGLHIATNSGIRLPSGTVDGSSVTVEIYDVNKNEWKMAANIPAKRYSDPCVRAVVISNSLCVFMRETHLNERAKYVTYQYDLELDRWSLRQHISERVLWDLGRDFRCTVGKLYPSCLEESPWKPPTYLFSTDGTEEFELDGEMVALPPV
UniProt Q8IXM2, whole entry, looked up: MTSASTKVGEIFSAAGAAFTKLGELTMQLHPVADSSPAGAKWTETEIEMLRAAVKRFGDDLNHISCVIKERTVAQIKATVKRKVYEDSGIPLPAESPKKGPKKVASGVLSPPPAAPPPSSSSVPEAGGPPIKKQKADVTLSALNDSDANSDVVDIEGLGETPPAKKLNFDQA
UniProt Q8N0X7: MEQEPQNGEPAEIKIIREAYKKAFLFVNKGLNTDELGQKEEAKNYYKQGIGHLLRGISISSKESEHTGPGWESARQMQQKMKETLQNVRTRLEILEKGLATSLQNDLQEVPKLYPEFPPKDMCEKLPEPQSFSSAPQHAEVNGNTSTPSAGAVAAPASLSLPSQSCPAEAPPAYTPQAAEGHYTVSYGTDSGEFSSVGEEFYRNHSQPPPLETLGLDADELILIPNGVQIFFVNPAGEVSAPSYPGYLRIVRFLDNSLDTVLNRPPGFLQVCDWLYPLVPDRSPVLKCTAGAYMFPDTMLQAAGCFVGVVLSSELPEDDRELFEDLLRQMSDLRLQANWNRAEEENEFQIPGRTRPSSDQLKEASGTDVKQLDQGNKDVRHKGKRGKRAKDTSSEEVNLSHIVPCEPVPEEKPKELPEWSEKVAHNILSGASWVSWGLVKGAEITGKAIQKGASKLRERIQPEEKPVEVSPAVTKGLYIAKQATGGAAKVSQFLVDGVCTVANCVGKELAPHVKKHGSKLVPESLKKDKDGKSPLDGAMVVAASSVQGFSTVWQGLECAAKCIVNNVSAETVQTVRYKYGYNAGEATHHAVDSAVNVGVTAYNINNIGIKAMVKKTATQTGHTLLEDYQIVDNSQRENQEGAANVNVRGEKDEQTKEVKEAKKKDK
UniProt Q8IYL2: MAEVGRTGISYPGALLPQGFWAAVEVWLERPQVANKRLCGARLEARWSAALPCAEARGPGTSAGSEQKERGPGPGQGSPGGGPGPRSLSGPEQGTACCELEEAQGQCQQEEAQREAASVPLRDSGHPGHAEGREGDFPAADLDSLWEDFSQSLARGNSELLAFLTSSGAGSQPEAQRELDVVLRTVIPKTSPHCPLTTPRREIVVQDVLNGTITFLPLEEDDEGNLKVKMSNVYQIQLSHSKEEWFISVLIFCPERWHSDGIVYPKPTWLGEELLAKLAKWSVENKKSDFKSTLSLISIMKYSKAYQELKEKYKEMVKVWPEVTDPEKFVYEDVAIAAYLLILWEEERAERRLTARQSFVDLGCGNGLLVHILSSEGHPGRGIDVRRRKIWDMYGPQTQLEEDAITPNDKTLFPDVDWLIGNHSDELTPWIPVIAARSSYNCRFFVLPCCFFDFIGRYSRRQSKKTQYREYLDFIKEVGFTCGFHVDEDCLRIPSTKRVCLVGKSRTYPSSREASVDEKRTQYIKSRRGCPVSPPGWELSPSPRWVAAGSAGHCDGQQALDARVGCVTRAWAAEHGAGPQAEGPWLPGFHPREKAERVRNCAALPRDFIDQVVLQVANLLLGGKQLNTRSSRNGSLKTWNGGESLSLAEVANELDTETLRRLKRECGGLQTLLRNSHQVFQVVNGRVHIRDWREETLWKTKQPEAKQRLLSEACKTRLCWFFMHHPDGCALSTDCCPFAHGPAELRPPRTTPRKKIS
UniProt Q8IZD4: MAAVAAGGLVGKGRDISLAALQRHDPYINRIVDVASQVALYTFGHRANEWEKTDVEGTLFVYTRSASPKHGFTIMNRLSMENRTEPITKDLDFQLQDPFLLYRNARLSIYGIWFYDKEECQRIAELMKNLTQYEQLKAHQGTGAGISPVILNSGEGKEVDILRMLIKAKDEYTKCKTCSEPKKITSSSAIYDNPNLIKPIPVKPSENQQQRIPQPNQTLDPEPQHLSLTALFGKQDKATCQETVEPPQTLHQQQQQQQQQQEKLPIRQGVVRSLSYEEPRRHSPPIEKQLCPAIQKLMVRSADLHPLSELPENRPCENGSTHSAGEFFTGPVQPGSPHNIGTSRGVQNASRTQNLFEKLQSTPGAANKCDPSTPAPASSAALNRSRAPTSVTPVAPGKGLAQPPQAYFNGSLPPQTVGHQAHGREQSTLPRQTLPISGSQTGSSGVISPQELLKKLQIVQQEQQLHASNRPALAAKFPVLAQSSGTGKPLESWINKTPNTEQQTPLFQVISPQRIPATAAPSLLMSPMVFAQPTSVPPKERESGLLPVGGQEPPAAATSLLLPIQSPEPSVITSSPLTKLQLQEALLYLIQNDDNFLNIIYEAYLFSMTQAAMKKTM

The other results are listed elsewhere or left out. Most entries show no effect beyond the scatter of the controls.

Compound in the assay: Cc1nc(Nc2ncc(C(=O)Nc3c(C)cccc3Cl)s2)cc(N2CCN(CCO)CC2)n1 [dasatinib]
The assay is described as follows: log2 fold change of tryptic peptide abundance, ligand vs vehicle (limited proteolysis) (log2 ratio); higher = more trypsin-susceptible (destabilized). The following applies: ligand concentration: 5 uM; sample: K562 cleared lysate.
On to “NR2C2AP (peptide sequence: GCLEGSQGTQALHK, peptide start residue: 75) (UniProt Q86WQ0)”, for which the log2 fold change is -0.276.
With “CACUL1 (peptide sequence: EPPGGQLLAVPAVSVDRK, peptide start residue: 51) (UniProt Q86Y37)”, the log2 fold change worked out at 0.33.
As to “UniProt Q86YG4 (peptide sequence: ERLEELK, peptide start residue: 353)”, the log2 fold change was -0.0472.
Turning to “KBTBD2 (peptide sequence: AWFQGLPPNDK, peptide start residue: 232) (UniProt Q8IY47)”, the log2 fold change is -0.191.
The value for “UniProt Q8IXM2 (peptide sequence: KVYEDSGIPLPAESPK, peptide start residue: 83)” was -0.0996; that for “UniProt Q8N0X7 (peptide sequence: ELAPHVKK, peptide start residue: 508)” was 0.184; that for “UniProt Q8IYL2 (peptide sequence: EVGFTCGFHVDEDCLR, peptide start residue: 477)” was 0.455.
The same measure for “DCP1B (peptide sequence: DISLAALQR, peptide start residue: 15) (UniProt Q8IZD4)”: -0.391.
